We go through six sequences from paper PMC6831303.

Amino acid sequences for entries named in this document (tags omitted).
UniProt P70372, whole entry: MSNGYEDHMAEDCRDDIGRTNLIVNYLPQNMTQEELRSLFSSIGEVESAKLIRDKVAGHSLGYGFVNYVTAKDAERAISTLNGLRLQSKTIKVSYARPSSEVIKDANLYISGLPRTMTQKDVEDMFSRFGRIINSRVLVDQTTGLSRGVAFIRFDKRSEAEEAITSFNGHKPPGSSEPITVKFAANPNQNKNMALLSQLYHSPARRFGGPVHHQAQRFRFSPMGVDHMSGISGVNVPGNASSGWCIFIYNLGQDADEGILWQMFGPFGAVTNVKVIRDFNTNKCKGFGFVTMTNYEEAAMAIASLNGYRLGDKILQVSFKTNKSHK

The exact form of at least one protein or probe is not confirmed. Where cells or extracts were used, other partners may take part. A negative result means that nothing was seen under these conditions. At least one verdict was read from the data and is not stated in words by the source.

The target of this series is HuR (ELAVL1) (mouse) (UniProt P70372). In words: EMSA (nuclear extract). The settings on record: LightShift Chemiluminescent RNA EMSA kit, REMSA binding buffer, 10 pM biotin-RNA probe, fibroblast nuclear extract. A general note: Mobility shift assays separate free from complexed probe on a gel.
The mark [1] stands for this setting: no shift with extract, 6% polyacrylamide …, protein in an extract.
Setting [2] is: no stable interaction with extract, 6% polyacrylamide gel, protein in an ….

As to “CUACAAUGAUUUAGUUUGCAAAAAAAAUGA [Safe probe 2F single strand]”, the binding result under setting [1] is listed as “no binding”.
Consider “UGAAUUAAAAGAUGUUUUAAACAAAGCUUA / UAAGCUUUGUUUAAAACAUCUUUUAAUUCA [Safe probe 3F/3R duplex]”, for which, under setting [2], the binding result is “no binding”.
For “AAGUUUAUAUACAAAGAAUAUAAUGUUUAU [Safe probe 1F single strand]”, the binding result under setting [1] is “no binding”.
Turning to “AAGUUUAUAUACAAAGAAUAUAAUGUUUAU / AUAAACAUUAUAUUCUUUGUAUAUAAACUU [Safe probe 1F/1R duplex]”, the binding result under setting [2] is “no binding”.
For the sequence “UGAAUUAAAAGAUGUUUUAAACAAAGCUUA [Safe probe 3F single strand]”, under setting [1], the binding result is recorded as “no binding”.
Turning to “CUACAAUGAUUUAGUUUGCAAAAAAAAUGA / UCAUUUUUUUUGCAAACUAAAUCAUUGUAG [Safe probe 2F/2R duplex]”, under setting [2], the binding result is recorded as “no binding”.
